# Data taken from PubChem BioAssay AID540256 (National Center for Advancing Translational Sciences (NCATS), 2011).
# In all, about 300,000 compounds went through this assay and about 3,700 (1.2%) were called active. The shares of active, inactive and inconclusive entries below differ from those in the screen. The call rests on the fitted dose curve; tested in HEK293 cells. Potencies beside an inconclusive call are fits to weak or partial responses and may not hold up.
# Assay: qHTS for Inhibitors of binding or entry into cells for Lassa Virus; further: nearly all actives have a fitted effect of over 50% in size
# Details: Lassa virus pseudotype entry inhibition, cell reporter; series mostly up to 37.9 µM
# Potency means the concentration at half of the fitted maximal effect.
row,SMILES,Potency
1,COc1ccc(C2CC(C)(c3ccc(OC)cc3)Nc3ccccc3N2)cc1 (configuration not stated),"inconclusive: 17.8 µM [inhibitor, single point]"
2,O=C(c1ccco1)N1CCN(c2c(-c3ccccc3)c3cc(Cl)ccc3[nH]c2=O)CC1,"inconclusive: 29.1 µM [inhibitor, single point]"
3,CN=c1scc(-c2ccccc2F)n1/N=C/c1ccc(O)c(O)c1O,"inconclusive: 0.891 µM [inhibitor, full curve, poor fit]"
4,COc1ccc(NC(=O)Cc2ccccc2)cc1,"inconclusive: 4.11 µM [activator, partial curve, poor fit]"
5,C=CCNC(=O)CSc1nc2scc(-c3ccco3)c2c(=O)n1CC=C,"inconclusive: 20 µM [activator, single point]"
6,COc1ccc(C2C(Oc3ccccc3)C(=O)N2c2cc(C)ccc2C)cc1OC (configuration not stated),"inconclusive: 25.1 µM [inhibitor, single point]"
7,COc1cccc(-c2cc(C(=O)NCc3ccco3)no2)c1,"inconclusive: 3.66 µM [activator, partial curve, poor fit]"
8,CCCN1Cc2cccc(C(=O)NC(CC(=O)OCC)c3ccc(OCC)c(OC)c3)c2C1=O (configuration not stated),"inconclusive: 11.2 µM [inhibitor, single point]"
9,Cc1ccccc1-n1c(O)c(C(c2ccncc2)c2c(O)n(-c3ccccc3C)c(=O)[nH]c2=O)c(=O)[nH]c1=O,inactive
10,Cn1c(=O)n(Cc2ccc(F)cc2)c(=O)c2c1nc1n2CCCN1Cc1ccccc1,"inconclusive: 35.5 µM [inhibitor, single point]"
11,O=C(CCN1CCN(Cc2ccccc2)CC1)Nc1cccc(Br)c1,"inconclusive: 35.5 µM [inhibitor, single point]"
12,Cc1cc(NC(=O)CSc2ccccn2)cc(NC(=O)CSc2ccccn2)c1,"inconclusive: 0.355 µM [inhibitor, partial curve, poor fit]"
13,CN1/C(=C\C=Nc2ccccc2)C(C)(C)c2ccccc21,"inconclusive: 29.1 µM [inhibitor, single point]"
14,Cc1c(C(=O)NNC(=O)c2ccccc2O)oc2ccc(Br)cc12,"inconclusive: 35.5 µM [inhibitor, single point]"
15,COc1ccccc1N1CCN(C(=O)c2cnn(-c3ccc(C)c(C)c3)c2C2CCN(C(=O)OC(C)(C)C)CC2)CC1,"inconclusive: 1.26 µM [inhibitor, full curve, poor fit]"
16,Cc1cc(C)nc(OC(C(=O)O)C(OCCc2ccccc2)(c2ccccc2)c2ccccc2)n1 (configuration not stated),"inconclusive: 2 µM [inhibitor, partial curve, poor fit]"
17,CCOC(=O)CCc1c(C)c2ccc(OCC(=O)OC(C)C)cc2oc1=O,inactive
18,Fc1ccccc1Sc1ccccc1CNC1=NCCN1,"inconclusive: 29.1 µM [inhibitor, single point]"
19,CCOc1ccc(N=C(NN)c2ccc3ccccc3n2)cc1,"inconclusive: 3.55 µM [inhibitor, full curve]"
20,CC(C)n1cc(CN2CCC(Oc3ccc(C(=O)N4CCCC4)cc3)CC2)cn1,"inconclusive: 1.26 µM [activator, single point]"
21,O=C(C[n+]1cc(-c2ccccc2)n2c1CCC2)N1c2ccccc2Sc2ccccc21,inactive
22,CN(c1ccccc1)S(=O)(=O)c1ccc(C(=O)N2CCCC2)cc1,"inconclusive: 0.891 µM [inhibitor, single point]"
23,Cc1ccc(C)c(Cn2c(=O)n(Cc3ccc(C(=O)NC4CCN(Cc5ccccc5)CC4)cc3)c(=O)c3ccccc32)c1,inactive

# Structural class: the compounds so far containing two or more sulfur atoms.
row,SMILES,Potency
5,C=CCNC(=O)CSc1nc2scc(-c3ccco3)c2c(=O)n1CC=C,"inconclusive: 20 µM [activator, single point]"
12,Cc1cc(NC(=O)CSc2ccccn2)cc(NC(=O)CSc2ccccn2)c1,"inconclusive: 0.355 µM [inhibitor, partial curve, poor fit]"

# (listing goes on)

row,SMILES,Potency
1,O=C(c1cn[nH]c1)N1CCc2c([nH]c3ccccc23)C1c1c(F)cccc1Cl (configuration not stated),"inconclusive: 35.5 µM [inhibitor, single point]"
2,COc1ccc(N=Cc2nc(-c3ccccc3)oc2OC(=O)c2ccccc2)cc1,"inconclusive: 6.51 µM [activator, single point]"
3,O=C(/C=C/c1ccco1)NC(=S)Nc1cccc(-c2nc3ccccc3o2)c1,inactive
4,Cc1ccccc1OCC(=O)N/N=C/c1ccccn1,inactive
5,CCn1c(=N)c(C(=O)NC2CCCCC2)cc2c(=O)n3cccc(C)c3nc21,"inconclusive: 7.08 µM [inhibitor, partial curve, poor fit]"
6,O=C(O)c1cccc(Nc2nc(Nc3ccccc3)nc(N3CCCC3)n2)c1,inactive
7,Cc1ccc(S(=O)(=O)C2(C(=O)Nc3ccc(Br)cc3)CC2)cc1,inactive
8,CC(C)n1c(SCC(N)=O)nc2c1c(=O)n(C)c(=O)n2C,"inconclusive: 9.2 µM [activator, partial curve, poor fit]"
9,COc1ccc(N2CCN(C(=S)Nc3ccccc3)CC2)cc1,"inconclusive: 10 µM [inhibitor, partial curve]"
10,N#Cc1nc(COc2ccccc2)oc1N1CCC(Cc2ccccc2)CC1,"inconclusive: 11.2 µM [inhibitor, partial curve, poor fit]"
11,C=CCNC(=O)/C(C#N)=C/c1c(C)nn(-c2ccc(Cl)cc2)c1Cl,"inconclusive: 25.9 µM [inhibitor, partial curve, poor fit]"
12,Cc1c(/C=C/C(=O)c2cccs2)cnn1C,"inconclusive: 5.17 µM [activator, full curve, poor fit]"
13,Nc1c(Cl)ncnc1N/N=C/c1ccncc1,"inconclusive: 5.62 µM [activator, single point]"
14,O=C(CSc1nc2ccccc2s1)NCc1ccc2c(c1)OCO2,inactive
15,CCOc1ccc(C(=O)CCC(=O)Nc2ccc(C)cn2)cc1,"inconclusive: 15.8 µM [inhibitor, single point]"
16,COc1ccc(C(=O)OCC(=O)NC2CCCCCC2)c(OC)c1,"inconclusive: 0.447 µM [activator, partial curve, poor fit]"
17,COCc1cc(/C=N\NC(=O)Cc2ccc(Cl)cc2)ccc1OC,"inconclusive: 29.1 µM [inhibitor, single point]"
18,CCn1nc(NC(=O)c2ccncc2)c2cc3ccccc3nc21,inactive
19,COC(=O)c1c(NC(=O)C2CC(=O)NN2Cc2ccccc2)sc(C)c1C (configuration not stated),"inconclusive: 8.91 µM [inhibitor, partial curve, poor fit]"
20,CCc1ccc(NC(=O)c2ccc3oc(=O)n(Cc4ccccc4)c3c2)cc1,"inconclusive: 35.5 µM [inhibitor, single point]"
21,Cn1ncc(Cl)c1C(=O)N1CCN(c2ccc(Cl)c(Cl)c2)CC1,inactive
22,COc1ccc(N2CC(C)(C)[C@H](CC(=O)Nc3ccc(Br)cc3)C2=O)cc1,"inconclusive: 0.628 µM [inhibitor, full curve, poor fit]"
23,Cc1ccccc1NC(=O)Cc1nnc(N)s1,"inconclusive: 10 µM [inhibitor, partial curve, poor fit]"

row,SMILES,Potency
1,COc1cc2c(cc1OC)C(C)N(C(=O)[C@@H](NC(=O)c1ccccc1)C(C)C)CC2 (some centres not stated),"inconclusive: 20 µM [inhibitor, single point]"
2,Cc1cc(NC2C3CC4CC(C3)CC2C4)n2nnnc2n1 (configuration not stated),"inconclusive: 2.91 µM [activator, single point]"
3,CCOc1ccc(OCC)c(NC(=O)C(NS(=O)(=O)c2ccc(Br)s2)c2ccccc2)c1 (configuration not stated),inactive
4,CCNCc1cc2cc(C)ccc2[nH]c1=O,"inconclusive: 6.51 µM [activator, single point]"
5,Cc1c(N=NC2=C(O)CCCC2=O)c(=O)n(-c2ccccc2)n1C,inactive
6,COc1ccc(C2=[N+](C)CCn3cccc32)c(OC)c1,"inconclusive: 3.55 µM [inhibitor, full curve]"
7,COc1ccc(/C=C/C(=O)OCC(=O)Nc2ccc3[nH]c(=O)[nH]c3c2)cc1OC,"inconclusive: 1.26 µM [inhibitor, single point]"
8,COc1cc(C(=O)NCCc2c[nH]c3ccccc23)ccc1OCc1c(C)noc1C,active: 7.94 µM
9,Cc1cc(Cl)c(S(=O)(=O)N2CCN(c3ccc(F)cc3)CC2)cc1OCC(=O)NC1CCCCC1,"inconclusive: 9.2 µM [inhibitor, partial curve, poor fit]"
10,COc1ccc(S(=O)(=O)N2CCOCC2)cc1NC(=O)CN1CCCC1,inactive
11,Cc1ccc(C(=O)/C=C/Nc2ccccc2C(N)=O)cc1,"inconclusive: 15.8 µM [inhibitor, partial curve, poor fit]"
12,CCOc1ccc(-n2nnnc2-c2nc3ccccc3s2)cc1,"inconclusive: 10 µM [inhibitor, partial curve, poor fit]"
13,Cc1cc(N)ccc1N1CCCC1,inactive
14,CC(=O)Nc1c(C(=O)O)ccc(C)c1OCc1ccccc1,inactive
15,CC1(C)CCSC(/C=C/c2ccccc2)=N1,"inconclusive: 17.8 µM [inhibitor, single point]"
16,O=C(Nc1ccc2c(c1)OCO2)c1cc(Cl)ccn1,"inconclusive: 11.2 µM [inhibitor, single point]"
17,Cc1ccc(O)c(NC(=O)c2noc3c2CCCCC3)c1,"inconclusive: 6.31 µM [inhibitor, single point]"
18,CCOC(=O)C1(CCc2ccccc2)CCN(C2CCSCC2)CC1,"inconclusive: 12.6 µM [inhibitor, partial curve, poor fit]"
19,Cc1[nH]n(-c2ccccc2)c(=O)c1/C=N/n1c(C)nc2ccccc2c1=O,"inconclusive: 0.164 µM [activator, single point]"
20,CCC1CN(C(=O)N2CCC(C(=O)NCCc3ccc(C)cc3)CC2)c2ccccc2O1 (configuration not stated),inactive
21,Cc1ccc2c(c1)C1CN(C)CCC1N2C(=O)Nc1cccc(C(F)(F)F)c1 (configuration not stated),inactive
